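Human melanoma cells were exposed to two drugs together for 72 h in 1,536-well plates and read by automated microscopy after fixing and staining. Each value is the cleaved-PARP-positive fraction of nuclei relative to DMSO-treated wells, in %, so that 100 equals the control and higher values mean more apoptosis. Concentrations were fixed for each drug; these are the higher of two levels. The file gives one value for each pair and line, without errors, so small differences may be noise. The marker varies much from line to line, for technical or biological reasons.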 This is part of the screen, not chosen by result. An entry leaves out what has no value listed here. A dash means that no value is listed here.

Drug key:
embelin, 6000 nM: CCCCCCCCCCCC1=C(O)C(=O)C=C(O)C1=O
JZL184, 5000 nM: O=C(Oc1ccc([N+](=O)[O-])cc1)N1CCC(C(O)(c2ccc3c(c2)OCO3)c2ccc3c(c2)OCO3)CC1
decitabine, 500 nM: Nc1ncn([C@H]2C[C@H](O)[C@@H](CO)O2)c(=O)n1
LFM-A13, 10000 nM: C/C(O)=C(\C#N)C(=O)Nc1cc(Br)ccc1Br
temozolomide, 10000 nM: Cn1nnc2c(C(N)=O)ncn2c1=O
docetaxel, 0.5 nM: CC(=O)O[C@@]12CO[C@@H]1C[C@H](O)[C@@]1(C)C(=O)[C@H](O)C3=C(C)[C@@H](OC(=O)[C@H](O)[C@@H](NC(=O)OC(C)(C)C)c4ccccc4)C[C@@](O)([C@@H](OC(=O)c4ccccc4)[C@H]21)C3(C)C
vismodegib, 5000 nM: CS(=O)(=O)c1ccc(C(=O)Nc2ccc(Cl)c(-c3ccccn3)c2)c(Cl)c1
CX-4945, 2000 nM: O=C(O)c1ccc2c(c1)nc(Nc1cccc(Cl)c1)c1ccncc12
vatalanib, 10000 nM: Clc1ccc(Nc2nnc(Cc3ccncc3)c3ccccc23)cc1
ABT-263, 2000 nM: CC1(C)CCC(c2ccc(Cl)cc2)=C(CN2CCN(c3ccc(C(=O)NS(=O)(=O)c4ccc(N[C@H](CCN5CCOCC5)CSc5ccccc5)c(S(=O)(=O)C(F)(F)F)c4)cc3)CC2)C1
CP-690550, 5000 nM: C[C@@H]1CCN(C(=O)CC#N)C[C@@H]1N(C)c1ncnc2[nH]ccc12
indole-3-carbinol, 4000 nM: OCc1c[nH]c2ccccc12
crizotinib, 1000 nM: C[C@@H](Oc1cc(-c2cnn(C3CCNCC3)c2)cnc1N)c1c(Cl)ccc(F)c1Cl

{"drugs": "docetaxel + vismodegib", "SK-MEL-30": 824, "A375": 303, "UACC-257": 214, "MZ2-MEL": 827}
{"drugs": "docetaxel + embelin", "SK-MEL-30": 540, "A375": 218, "UACC-257": 103, "MZ2-MEL": 783}
{"drugs": "LFM-A13 + vatalanib", "SK-MEL-30": 88.9, "A375": 111, "UACC-257": 17.5, "MZ2-MEL": 104}
{"drugs": "vatalanib + ABT-263", "SK-MEL-30": 1550, "A375": 458, "UACC-257": 1870, "MZ2-MEL": 304}
{"drugs": "docetaxel + vatalanib", "SK-MEL-30": 167, "A375": 176, "UACC-257": 263, "MZ2-MEL": 778}
{"drugs": "decitabine + indole-3-carbinol", "SK-MEL-30": 127, "A375": 86.0, "UACC-257": 29.2, "MZ2-MEL": 30.2}
{"drugs": "decitabine + JZL184", "SK-MEL-30": 159, "A375": 129, "UACC-257": 28.1, "MZ2-MEL": 65.5}
{"drugs": "CP-690550 + crizotinib", "SK-MEL-30": 112, "UACC-257": 39.5, "MZ2-MEL": 80.6}
{"drugs": "CP-690550 + CX-4945", "SK-MEL-30": 295, "UACC-257": 65.4, "MZ2-MEL": 84.3}
{"drugs": "CP-690550 + vatalanib", "SK-MEL-30": 152, "UACC-257": 93.6, "MZ2-MEL": 187}
{"drugs": "embelin + CX-4945", "SK-MEL-30": 152, "A375": 74.3, "UACC-257": 168, "MZ2-MEL": 80.3}
{"drugs": "ABT-263 + temozolomide", "SK-MEL-30": 700, "A375": 434, "UACC-257": 1720}
{"drugs": "embelin + indole-3-carbinol", "SK-MEL-30": 150, "A375": 98.4, "UACC-257": 95.4, "MZ2-MEL": 160}
{"drugs": "vismodegib + CX-4945", "SK-MEL-30": 218, "A375": 188, "UACC-257": 37.7, "MZ2-MEL": 143}
{"drugs": "CP-690550 + ABT-263", "SK-MEL-30": 535, "UACC-257": 3360, "MZ2-MEL": 301}
{"drugs": "CP-690550 + docetaxel", "SK-MEL-30": 499, "UACC-257": 54.1, "MZ2-MEL": 694}
{"drugs": "crizotinib + ABT-263", "SK-MEL-30": 397, "A375": 203, "UACC-257": 2630, "MZ2-MEL": 261}
{"drugs": "decitabine + CX-4945", "SK-MEL-30": 164, "A375": 446, "UACC-257": 67.3, "MZ2-MEL": 487}
{"drugs": "temozolomide + indole-3-carbinol", "SK-MEL-30": 149, "A375": 93.8, "UACC-257": 45.0, "MZ2-MEL": 87.7}
{"drugs": "crizotinib + docetaxel", "SK-MEL-30": 386, "A375": 114, "UACC-257": 103, "MZ2-MEL": 978}
{"drugs": "CP-690550 + LFM-A13", "SK-MEL-30": 73.9, "A375": 28.1, "UACC-257": 36.2, "MZ2-MEL": 49.6}
{"drugs": "temozolomide + vatalanib", "SK-MEL-30": 226, "A375": 132, "UACC-257": 98.5, "MZ2-MEL": 89.5}

2 of the entries, repeated:

Drugs,SK-MEL-30,A375,UACC-257,MZ2-MEL
temozolomide + indole-3-carbinol,149,93.8,45.0,87.7
CP-690550 + CX-4945,295,-,65.4,84.3

Source: doi:10.1371/journal.pone.0140310, primary screening data, rounded.